Laboratory results reported in paper PMC5974425.
Results are given in words; binding and its absence hold for the method and conditions named. Binding seen in cells or lysates may run through a third protein. Binding calls can cover weak binding; strength is not graded here.

By UniProt entry, the sequences of proteins in these tests, tags left out. Where a name states a change or a piece, a line headed by the entry shows the natural chain unless it says otherwise.
UniProt Q12923: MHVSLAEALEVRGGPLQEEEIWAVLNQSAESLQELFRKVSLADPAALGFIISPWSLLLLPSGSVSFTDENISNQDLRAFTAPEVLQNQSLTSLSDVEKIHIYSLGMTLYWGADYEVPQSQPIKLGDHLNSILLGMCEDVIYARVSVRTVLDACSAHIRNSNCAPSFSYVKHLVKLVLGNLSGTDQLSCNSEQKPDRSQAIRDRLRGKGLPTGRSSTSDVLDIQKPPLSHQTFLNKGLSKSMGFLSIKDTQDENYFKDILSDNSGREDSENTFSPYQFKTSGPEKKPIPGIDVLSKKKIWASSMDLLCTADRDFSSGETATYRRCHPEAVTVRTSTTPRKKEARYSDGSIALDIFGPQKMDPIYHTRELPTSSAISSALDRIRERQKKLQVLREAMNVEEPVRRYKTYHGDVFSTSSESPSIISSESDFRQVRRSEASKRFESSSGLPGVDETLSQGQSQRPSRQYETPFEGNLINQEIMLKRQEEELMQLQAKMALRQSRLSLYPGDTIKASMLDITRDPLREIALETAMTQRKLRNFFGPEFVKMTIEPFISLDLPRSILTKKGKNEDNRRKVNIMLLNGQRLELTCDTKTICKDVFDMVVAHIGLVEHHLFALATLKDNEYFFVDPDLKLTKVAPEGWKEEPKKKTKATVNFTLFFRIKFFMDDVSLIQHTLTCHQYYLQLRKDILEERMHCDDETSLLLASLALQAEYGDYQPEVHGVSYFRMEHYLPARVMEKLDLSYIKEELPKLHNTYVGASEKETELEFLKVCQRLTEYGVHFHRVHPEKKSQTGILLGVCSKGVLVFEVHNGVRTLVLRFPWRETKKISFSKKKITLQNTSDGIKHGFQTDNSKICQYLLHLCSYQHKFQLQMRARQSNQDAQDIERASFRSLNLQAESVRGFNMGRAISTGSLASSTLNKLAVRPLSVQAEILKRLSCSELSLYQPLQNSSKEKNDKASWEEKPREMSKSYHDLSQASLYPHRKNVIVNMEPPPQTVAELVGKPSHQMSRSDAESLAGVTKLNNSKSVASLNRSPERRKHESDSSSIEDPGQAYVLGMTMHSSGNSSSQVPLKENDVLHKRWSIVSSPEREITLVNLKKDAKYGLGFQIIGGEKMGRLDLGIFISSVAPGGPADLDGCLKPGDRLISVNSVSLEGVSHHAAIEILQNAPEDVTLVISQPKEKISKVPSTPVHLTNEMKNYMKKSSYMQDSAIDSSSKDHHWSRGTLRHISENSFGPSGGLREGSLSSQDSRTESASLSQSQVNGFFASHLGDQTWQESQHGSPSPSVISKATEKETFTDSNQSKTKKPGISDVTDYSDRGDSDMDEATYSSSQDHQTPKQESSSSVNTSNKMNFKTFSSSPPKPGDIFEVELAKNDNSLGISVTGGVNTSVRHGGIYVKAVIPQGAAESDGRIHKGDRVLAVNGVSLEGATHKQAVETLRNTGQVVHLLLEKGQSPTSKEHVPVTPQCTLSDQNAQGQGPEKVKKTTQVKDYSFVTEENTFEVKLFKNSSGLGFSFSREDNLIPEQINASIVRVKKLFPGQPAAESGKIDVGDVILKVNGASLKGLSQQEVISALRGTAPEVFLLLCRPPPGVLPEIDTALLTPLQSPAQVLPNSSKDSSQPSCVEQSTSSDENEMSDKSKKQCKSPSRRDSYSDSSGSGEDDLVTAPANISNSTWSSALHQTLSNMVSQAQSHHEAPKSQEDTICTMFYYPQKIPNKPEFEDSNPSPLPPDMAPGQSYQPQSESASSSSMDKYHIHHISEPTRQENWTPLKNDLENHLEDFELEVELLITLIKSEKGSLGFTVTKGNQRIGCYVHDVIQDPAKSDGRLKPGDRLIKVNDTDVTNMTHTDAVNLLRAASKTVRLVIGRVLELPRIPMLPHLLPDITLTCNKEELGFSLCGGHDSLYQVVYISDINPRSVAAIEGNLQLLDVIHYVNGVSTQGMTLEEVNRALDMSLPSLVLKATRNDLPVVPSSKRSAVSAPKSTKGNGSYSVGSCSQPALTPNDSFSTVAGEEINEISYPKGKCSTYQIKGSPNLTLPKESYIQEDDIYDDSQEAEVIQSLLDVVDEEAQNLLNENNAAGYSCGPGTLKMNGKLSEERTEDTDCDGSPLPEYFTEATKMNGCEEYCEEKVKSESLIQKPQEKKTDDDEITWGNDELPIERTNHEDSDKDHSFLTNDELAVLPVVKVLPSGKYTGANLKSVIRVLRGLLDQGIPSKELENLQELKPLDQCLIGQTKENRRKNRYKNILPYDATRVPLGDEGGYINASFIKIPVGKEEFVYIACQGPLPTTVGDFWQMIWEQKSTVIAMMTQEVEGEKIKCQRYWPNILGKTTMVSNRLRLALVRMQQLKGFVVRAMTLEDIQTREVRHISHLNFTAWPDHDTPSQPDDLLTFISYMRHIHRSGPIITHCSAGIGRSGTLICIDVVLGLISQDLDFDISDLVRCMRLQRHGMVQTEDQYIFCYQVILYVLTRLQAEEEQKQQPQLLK
UniProt Q16513: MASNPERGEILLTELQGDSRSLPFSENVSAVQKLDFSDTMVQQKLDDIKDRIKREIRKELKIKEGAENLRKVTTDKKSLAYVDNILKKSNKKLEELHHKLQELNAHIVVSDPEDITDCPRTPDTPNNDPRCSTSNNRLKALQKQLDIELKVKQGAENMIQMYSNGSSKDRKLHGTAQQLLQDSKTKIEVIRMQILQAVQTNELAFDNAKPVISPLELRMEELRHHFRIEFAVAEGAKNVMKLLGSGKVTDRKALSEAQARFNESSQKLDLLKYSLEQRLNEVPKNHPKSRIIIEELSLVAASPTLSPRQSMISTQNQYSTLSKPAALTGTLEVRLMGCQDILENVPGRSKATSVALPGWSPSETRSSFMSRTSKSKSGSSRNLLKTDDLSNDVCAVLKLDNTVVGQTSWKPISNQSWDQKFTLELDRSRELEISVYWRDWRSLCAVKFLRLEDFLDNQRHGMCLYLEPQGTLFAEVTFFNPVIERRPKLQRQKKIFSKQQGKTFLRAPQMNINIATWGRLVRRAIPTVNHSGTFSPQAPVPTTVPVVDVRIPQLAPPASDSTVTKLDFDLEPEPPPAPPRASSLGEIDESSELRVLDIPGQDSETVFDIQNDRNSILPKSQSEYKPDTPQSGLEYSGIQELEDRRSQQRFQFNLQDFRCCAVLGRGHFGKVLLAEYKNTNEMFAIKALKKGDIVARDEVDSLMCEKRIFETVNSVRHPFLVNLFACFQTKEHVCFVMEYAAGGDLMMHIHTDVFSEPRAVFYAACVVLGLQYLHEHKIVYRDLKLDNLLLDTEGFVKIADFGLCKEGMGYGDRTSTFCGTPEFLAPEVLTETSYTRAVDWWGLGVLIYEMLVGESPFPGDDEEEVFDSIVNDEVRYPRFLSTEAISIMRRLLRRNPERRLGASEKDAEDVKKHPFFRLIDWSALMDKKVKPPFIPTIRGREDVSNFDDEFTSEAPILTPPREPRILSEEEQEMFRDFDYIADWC

Tests used:
GFP-PTPL1(ΔPDZ1-2) = GFP-PTPL1(ΔPDZ1-2) (UniProt Q12923); test: co-IP; transfected HEK293T cells lysed in 1% Triton X-100, 50 mM Tris-HCl pH 7.5, 150 mM NaCl, 5 mM MgCl2; cleared lysates on agarose beads coupled to GFP binding protein, 1 h at 4°C; the GFP- or YFP-tagged protein is the bait; Western blot
GFP-PTPL1(ΔPDZ2) = GFP-PTPL1(ΔPDZ2) (UniProt Q12923); test: as above

Flag-PKN2 (from UniProt Q16513 1-984)
binding (GFP-PTPL1(ΔPDZ1-2)): binds | binding (GFP-PTPL1(ΔPDZ2)): binds
